Data: publication PMC6896172, “Successful Targeting of the Warburg Effect in Prostate Cancer by Glucose-Conjugated 1,4-Naphthoquinones” (Cancers, 2019)
This continues a long series; more values of the same kind are listed elsewhere.

System: 22Rv1 cells
Experiment: Global proteome analysis (LC-MS/MS, DIA) of differentially expressed proteins
Type: cell-based, human
Description: 22Rv1 cells were seeded in T75 culture bottles (4 × 10^6 cells/bottle in 20 mL/bottle), treated for 48 h with the 5 µM of compound 11 or vehicle (DMSO), harvested by scratching, washed twice with ice-cold PBS and flash-frozen. Cells were lysed and sonicated. The protein extracts were then heat-denaturated, reduced, alkylated and digested by trypsin. Peptides were chromatographically separated using full recovery autosampler vials and a nano-UPLC system (Acquity, Waters Corporation, Milford, MS, USA), coupled via electrospray ionization (ESI) to a tandem mass spectrometer equipped with a quadrupole and an orbitrap (QExactive, Thermo Fisher Scientific, Bremen, Germany), using MS/MS mode in data dependent acquisition (DDA) and data independent acquisition (DIA). The peptides, analyzed with DDA-LC-MS/MS, were identified with the search engine Sequest, integrated in the Proteome Discoverer software version 2.0 (Thermo Fischer Scientific) using the human Uniprot protein database (EMBL; Hinxton Cambridge, UK, release December 2018). […] For the details of sample preparation and proceeding, data acquisition and analysis see the Supplementary information. […]
serum (FBS, Invitrogen) and 1% penicillin/streptomycin (Invitrogen)). […]
Cell lines were lysed in 100 mM triethylammonium bicarbonate and 1% w/v sodium deoxycholate buffer followed by probe sonication to destroy polynucleotides and heat induce protein denaturing at 99 °C for 5 min. Protein concentrations were estimated with a bicinchonic acid (BCA) protein assay (Thermo Fisher Scientific, Bremen, Germany). 20 µg of protein were reduced in presence of 10 mM dithiotreithol (Sigma Aldrich) for 30 min at 60 °C followed by cysteine alkylation with 20 mM iodo acetamide (Sigma Aldrich) for 30 min at 37 °C in the dark and enzymatic degradation with sequencing grade trypsin (Promega) over night at 37 °C. Digestion was quenched with 1% formic acid (FA), precipitated sodium deoxycholate removed by centrifugation for 5 min at 14,000 g and the supernatant was dried in a vacuum centrifuge.
LC-MS/MS in Data Dependent and Data Independent Mode
Samples were resuspended in 0.1% FA and transferred into a full recovery autosampler vial (Waters). Chromatographic separation was achieved on a nano -UPLC system (Acquity, Waters Corporation, Milford, MS, USA) with a two-buffer-system (buffer A: 0.1% FA in water, buffer B:
0.1% FA in Acetonitrile (ACN), both at pH = 3). Attached to the UPLC was a reversed -phase peptide trapping column (Symmetry C18, 180 µm × 20 mm, 100 Å pore size, 5 µm particle size) for desalting, followed by a reversed-phase capillary separation of the tryptic peptides (BEH C18; 75 µm × 200 mm, 130 Å pore size, 1.7 µm particle size), using a 60 min gradient with increasing ACN concentration from 2–30% ACN. The eluting peptides were analyzed on a quadrupole-orbitrap mass spectrometer (QExactive, Thermo Fisher Scientific, Bremen, Germany) in data dependent acquisition (DDA) and data independent acquisition (DIA) for quantification.
In DDA mode, one replicate of each cell line was randomly chosen and 1 µg per sample was used per LC-MS/MS run to build a reference spectral library used for data extraction of samples acquired in DIA mode. For DDA, the 12 most intense ions per precursor scan (1 × 10 6 ions, 70,000 Resolution, 120 ms fill time) were analyzed by MS/MS (HCD at 25 normalized collision energy, 1 × 105 ions, 17,500 Resolution, 50 ms fill time) in a range of 400–1300 m/z. A dynamic precursor exclusion of 20 s was used. For DIA, 1 µg of each sample was analyzed using a 30 sequential 20 Da fixed window method covering the mass range from 400 –1000 m/z. Per cycle, 2 precursor scans (1 × […]
28 normalized collision energy, 1 × 106 ions, 17,500 Resolution, 50 ms fill time) were performed.
After the first precursor scan, 15 MS/MS scans were performed covering the precursor mass range from 400–700 m/z followed by the second precursor scan and another 15 MS/MS scans ranging from […]
LC-MS/MS Data Processing and Analysis […]

CC1(C)OC2OC(C(O)COC3=CC(=O)c4cccc(O)c4C3=O)C(O)C2O1 (centres unmarked) [Compound 11]
Fold change (treated / control) (IF4A1_HUMAN P60842): 0.6202 | Fold change (treated / control) (IF6_HUMAN P56537): 1.149 | Fold change (treated / control) (IMA1_HUMAN P52292): 0.5682 | Fold change (treated / control) (IPO4_HUMAN Q8TEX9): 0.5203 | Fold change (treated / control) (IPYR2_HUMAN Q9H2U2): 1.308 | Fold change (treated / control) (IPYR_HUMAN Q15181): 1.243 | Fold change (treated / control) (JAM1_HUMAN Q9Y624): 1.844 | Fold change (treated / control) (K1C18_HUMAN P05783): 1.686 | Fold change (treated / control) (K2C7_HUMAN P08729): 0.6774 | Fold change (treated / control) (K2C8_HUMAN P05787): 1.371 | Fold change (treated / control) (KAD2_HUMAN P54819): 0.8046 | Fold change (treated / control) (KAP2_HUMAN P13861): 1.245 | Fold change (treated / control) (KCY_HUMAN P30085): 1.424 | Fold change (treated / control) (KDM2A_HUMAN Q9Y2K7): 0.3972 | Fold change (treated / control) (KITH_HUMAN P04183): 0.3876 | Fold change (treated / control) (KPRB_HUMAN O60256): 1.485 | Fold change (treated / control) (KPYM_HUMAN P14618): 1.184 | Fold change (treated / control) (LARP4_HUMAN Q71RC2): 0.5045 | Fold change (treated / control) (LDHA_HUMAN P00338): 1.229 | Fold change (treated / control) (LIMC1_HUMAN Q9UPQ0): 2.0937 | Fold change (treated / control) (LIS1_HUMAN P43034): 1.602 | Fold change (treated / control) (LKHA4_HUMAN P09960): 1.304 | Fold change (treated / control) (LMNA_HUMAN P02545): 1.282 | Fold change (treated / control) (LNP_HUMAN Q9C0E8): 1.307 | Fold change (treated / control) (LPPRC_HUMAN P42704): 0.8791 | Fold change (treated / control) (LRWD1_HUMAN Q9UFC0): 0.5648 | Fold change (treated / control) (LSM2_HUMAN Q9Y333): 1.955 | Fold change (treated / control) (LYPA1_HUMAN O75608): 1.345 | Fold change (treated / control) (MATR3_HUMAN P43243): 0.8834 | Fold change (treated / control) (MBB1A_HUMAN Q9BQG0): 0.4544 | Fold change (treated / control) (MBNL1_HUMAN Q9NR56): 1.5 | Fold change (treated / control) (MCA3_HUMAN O43324): 1.338 | Fold change (treated / control) (MCCB_HUMAN Q9HCC0): 0.8303 | Fold change (treated / control) (MCES_HUMAN O43148): 1.42 | Fold change (treated / control) (MCM2_HUMAN P49736): 0.5572 | Fold change (treated / control) (MCM3_HUMAN P25205): 0.6329 | Fold change (treated / control) (MCM4_HUMAN P33991): 0.5634 | Fold change (treated / control) (MCM5_HUMAN P33992): 0.5949 | Fold change (treated / control) (MCM6_HUMAN Q14566): 0.6119 | Fold change (treated / control) (MCM7_HUMAN P33993): 0.5855 | Fold change (treated / control) (MCP_HUMAN P15529): 0.1636 | Fold change (treated / control) (MET7A_HUMAN Q9H8H3): 0.7217 | Fold change (treated / control) (MGN2_HUMAN Q96A72): 1.797 | Fold change (treated / control) (MGN_HUMAN P61326): 1.39 | Fold change (treated / control) (MIEN1_HUMAN Q9BRT3): 0.6775 | Fold change (treated / control) (MINP1_HUMAN Q9UNW1): 1.762 | Fold change (treated / control) (MIPEP_HUMAN Q99797): 0.6023 | Fold change (treated / control) (MMSA_HUMAN Q02252): 0.7267 | Fold change (treated / control) (MOFA1_HUMAN Q9Y605): 0.5421 | Fold change (treated / control) (MPPB_HUMAN O75439): 0.7358 | Fold change (treated / control) (MTA1_HUMAN Q13330): 0.5631 | Fold change (treated / control) (MTA2_HUMAN O94776): 0.5939 | Fold change (treated / control) (MTX1_HUMAN Q13505): 1.3478 | Fold change (treated / control) (MVP_HUMAN Q14764): 1.393 | Fold change (treated / control) (MYDGF_HUMAN Q969H8): 1.494 | Fold change (treated / control) (MYH9_HUMAN P35579): 1.516 | Fold change (treated / control) (MYL6_HUMAN P60660): 1.584 | Fold change (treated / control) (MZT1_HUMAN Q08AG7): 0.7035 | Fold change (treated / control) (NAMPT_HUMAN P43490): 1.355 | Fold change (treated / control) (NASP_HUMAN P49321): 0.7313 | Fold change (treated / control) (NDK3_HUMAN Q13232): 1.551 | Fold change (treated / control) (NDUA2_HUMAN O43678): 0.4769 | Fold change (treated / control) (NDUA3_HUMAN O95167): 0.3195 | Fold change (treated / control) (NDUA4_HUMAN O00483): 0.4541 | Fold change (treated / control) (NDUA6_HUMAN P56556): 1.556 | Fold change (treated / control) (NDUAC_HUMAN Q9UI09): 0.6076 | Fold change (treated / control) (NDUB4_HUMAN O95168): 0.7762 | Fold change (treated / control) (NDUBA_HUMAN O96000): 0.7553 | Fold change (treated / control) (NDUS1_HUMAN P28331): 0.5206 | Fold change (treated / control) (NDUV1_HUMAN P49821): 0.6332 | Fold change (treated / control) (NEP1_HUMAN Q92979): 0.7224 | Fold change (treated / control) (NHLC2_HUMAN Q8NBF2): 1.379 | Fold change (treated / control) (NIF3L_HUMAN Q9GZT8): 1.466 | Fold change (treated / control) (NLTP_HUMAN P22307): 1.224 | Fold change (treated / control) (NNTM_HUMAN Q13423): 0.849 | Fold change (treated / control) (NOG1_HUMAN Q9BZE4): 0.5546 | Fold change (treated / control) (NOP56_HUMAN O00567): 0.7231 | Fold change (treated / control) (NPL4_HUMAN Q8TAT6): 1.906 | Fold change (treated / control) (NPM3_HUMAN O75607): 0.7477 | Fold change (treated / control) (NPM_HUMAN P06748): 1.144 | Fold change (treated / control) (NSA2_HUMAN O95478): 0.4343 | Fold change (treated / control) (NSF1C_HUMAN Q9UNZ2): 1.333 | Fold change (treated / control) (NUCG_HUMAN Q14249): 0.1894 | Fold change (treated / control) (NUD19_HUMAN A8MXV4): 1.502 | Fold change (treated / control) (NUP54_HUMAN Q7Z3B4): 1.218 | Fold change (treated / control) (OAT_HUMAN P04181): 1.477 | Fold change (treated / control) (ODO1_HUMAN Q02218): 0.8847 | Fold change (treated / control) (ODO2_HUMAN P36957): 1.1964 | Fold change (treated / control) (ODPX_HUMAN O00330): 0.7973 | Fold change (treated / control) (OSBL9_HUMAN Q96SU4): 1.7847 | Fold change (treated / control) (OST48_HUMAN P39656): 0.9074 | Fold change (treated / control) (OTUB1_HUMAN Q96FW1): 1.339 | Fold change (treated / control) (P4HTM_HUMAN Q9NXG6): 0.3114 | Fold change (treated / control) (P5CR2_HUMAN Q96C36): 0.455 | Fold change (treated / control) (PA1B3_HUMAN Q15102): 1.114 | Fold change (treated / control) (PB1_HUMAN Q86U86): 0.6737 | Fold change (treated / control) (PBDC1_HUMAN Q9BVG4): 1.74 | Fold change (treated / control) (PCBP1_HUMAN Q15365): 0.8148 | Fold change (treated / control) (PCBP2_HUMAN Q15366): 0.6786 | Fold change (treated / control) (PCNA_HUMAN P12004): 0.6578 | Fold change (treated / control) (PDCD6_HUMAN O75340): 1.152
